In article doi:10.1101/170100:
Results are given in words; binding and its absence hold for the method and conditions named. In cells and extracts the contact can be indirect. These calls come from enrichment with a bait or labelling near it, and not all partners need be listed.

The chains behind the UniProt entries cited, without tags or fusion partners.
UniProt Q8CH84: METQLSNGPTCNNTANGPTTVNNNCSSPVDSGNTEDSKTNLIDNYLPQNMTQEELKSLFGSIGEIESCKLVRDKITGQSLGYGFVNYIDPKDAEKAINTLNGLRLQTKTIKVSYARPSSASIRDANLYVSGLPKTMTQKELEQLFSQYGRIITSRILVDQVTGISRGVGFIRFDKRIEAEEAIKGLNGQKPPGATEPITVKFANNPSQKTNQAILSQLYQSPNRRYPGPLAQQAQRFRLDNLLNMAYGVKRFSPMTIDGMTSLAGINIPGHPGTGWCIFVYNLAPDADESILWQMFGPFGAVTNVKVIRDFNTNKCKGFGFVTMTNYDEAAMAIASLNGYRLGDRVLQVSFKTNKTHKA
UniProt Q9QZ81: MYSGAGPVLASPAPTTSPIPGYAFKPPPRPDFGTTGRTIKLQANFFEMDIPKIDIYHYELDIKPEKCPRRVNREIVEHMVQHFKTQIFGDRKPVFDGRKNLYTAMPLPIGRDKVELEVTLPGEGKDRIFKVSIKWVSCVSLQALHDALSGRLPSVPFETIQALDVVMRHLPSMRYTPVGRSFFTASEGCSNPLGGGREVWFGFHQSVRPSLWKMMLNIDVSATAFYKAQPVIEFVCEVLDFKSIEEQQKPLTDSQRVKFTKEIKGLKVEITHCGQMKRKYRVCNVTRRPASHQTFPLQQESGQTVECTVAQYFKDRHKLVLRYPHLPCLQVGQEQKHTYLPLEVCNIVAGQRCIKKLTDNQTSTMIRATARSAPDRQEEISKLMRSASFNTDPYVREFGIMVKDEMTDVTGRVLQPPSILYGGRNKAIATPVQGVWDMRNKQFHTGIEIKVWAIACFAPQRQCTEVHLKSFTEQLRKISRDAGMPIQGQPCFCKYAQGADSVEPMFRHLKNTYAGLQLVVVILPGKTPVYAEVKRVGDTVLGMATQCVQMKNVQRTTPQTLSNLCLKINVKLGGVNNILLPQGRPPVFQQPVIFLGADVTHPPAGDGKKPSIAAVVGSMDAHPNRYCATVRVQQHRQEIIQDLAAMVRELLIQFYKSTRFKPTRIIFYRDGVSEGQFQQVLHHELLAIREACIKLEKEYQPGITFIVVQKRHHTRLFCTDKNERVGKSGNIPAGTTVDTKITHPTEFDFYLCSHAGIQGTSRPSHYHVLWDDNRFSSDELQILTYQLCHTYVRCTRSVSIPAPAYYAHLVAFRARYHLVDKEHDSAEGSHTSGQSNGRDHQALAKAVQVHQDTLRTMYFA
UniProt O09032: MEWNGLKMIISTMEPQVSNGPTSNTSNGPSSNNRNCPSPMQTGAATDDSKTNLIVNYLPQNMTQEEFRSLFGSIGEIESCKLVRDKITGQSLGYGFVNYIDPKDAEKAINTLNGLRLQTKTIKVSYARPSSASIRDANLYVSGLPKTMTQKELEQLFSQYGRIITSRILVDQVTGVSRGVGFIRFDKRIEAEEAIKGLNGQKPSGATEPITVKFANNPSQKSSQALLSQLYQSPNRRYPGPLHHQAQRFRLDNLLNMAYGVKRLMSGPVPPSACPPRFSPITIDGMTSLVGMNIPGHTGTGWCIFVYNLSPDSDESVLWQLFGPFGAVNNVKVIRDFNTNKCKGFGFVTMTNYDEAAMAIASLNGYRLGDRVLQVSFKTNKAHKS
UniProt Q7TP98: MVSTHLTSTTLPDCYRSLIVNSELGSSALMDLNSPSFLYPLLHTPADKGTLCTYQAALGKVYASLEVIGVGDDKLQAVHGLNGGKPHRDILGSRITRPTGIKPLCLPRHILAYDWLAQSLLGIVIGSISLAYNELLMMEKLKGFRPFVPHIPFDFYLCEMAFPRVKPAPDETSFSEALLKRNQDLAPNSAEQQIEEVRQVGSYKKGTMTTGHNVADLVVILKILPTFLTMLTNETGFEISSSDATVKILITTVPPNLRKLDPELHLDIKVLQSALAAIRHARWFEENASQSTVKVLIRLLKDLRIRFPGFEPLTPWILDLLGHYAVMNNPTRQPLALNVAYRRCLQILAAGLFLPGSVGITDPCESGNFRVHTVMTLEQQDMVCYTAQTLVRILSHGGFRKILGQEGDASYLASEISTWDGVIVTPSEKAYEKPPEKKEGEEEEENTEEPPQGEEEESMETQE

Biological target: T1, Upf1 (rat (endogenous in sympathetic neurons of Sprague Dawley rats and in PC12 cells))
T1 sequence: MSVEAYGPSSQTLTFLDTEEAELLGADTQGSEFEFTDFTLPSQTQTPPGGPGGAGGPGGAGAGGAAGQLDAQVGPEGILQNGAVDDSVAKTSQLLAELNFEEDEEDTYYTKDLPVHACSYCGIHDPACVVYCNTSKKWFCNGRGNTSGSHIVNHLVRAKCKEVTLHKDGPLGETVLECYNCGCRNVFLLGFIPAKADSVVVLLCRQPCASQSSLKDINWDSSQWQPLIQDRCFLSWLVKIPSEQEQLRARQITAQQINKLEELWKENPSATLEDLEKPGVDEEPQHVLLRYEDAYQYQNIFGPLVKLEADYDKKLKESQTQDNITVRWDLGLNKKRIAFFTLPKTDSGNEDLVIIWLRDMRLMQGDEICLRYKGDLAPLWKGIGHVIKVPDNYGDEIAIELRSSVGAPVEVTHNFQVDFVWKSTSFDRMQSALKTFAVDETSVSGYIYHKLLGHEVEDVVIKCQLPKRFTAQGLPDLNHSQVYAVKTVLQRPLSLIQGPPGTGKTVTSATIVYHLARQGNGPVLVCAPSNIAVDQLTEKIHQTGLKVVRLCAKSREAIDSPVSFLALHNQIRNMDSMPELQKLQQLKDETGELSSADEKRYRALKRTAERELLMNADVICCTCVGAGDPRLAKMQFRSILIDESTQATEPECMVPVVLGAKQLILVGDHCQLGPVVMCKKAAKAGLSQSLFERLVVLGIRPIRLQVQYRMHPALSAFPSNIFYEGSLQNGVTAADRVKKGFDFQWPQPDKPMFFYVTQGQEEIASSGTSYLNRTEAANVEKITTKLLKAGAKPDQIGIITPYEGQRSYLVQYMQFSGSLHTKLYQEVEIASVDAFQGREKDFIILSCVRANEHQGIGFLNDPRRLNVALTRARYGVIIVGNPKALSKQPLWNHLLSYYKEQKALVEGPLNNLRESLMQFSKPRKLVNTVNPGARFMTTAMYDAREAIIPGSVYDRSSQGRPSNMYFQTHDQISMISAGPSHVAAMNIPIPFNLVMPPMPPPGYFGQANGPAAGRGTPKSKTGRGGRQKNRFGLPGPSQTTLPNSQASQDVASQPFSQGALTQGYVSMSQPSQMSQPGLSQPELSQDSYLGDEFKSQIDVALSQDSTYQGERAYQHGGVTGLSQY
Experiment: affinity purification with mass spectrometry

binding	Substance
binds	ELAV-like protein 2 (from UniProt Q8CH84 1-359)
binds	argonaute-2 (from UniProt Q9QZ81 1-860)
binds	ELAV-like protein 4 (from UniProt O09032 1-385)
binds	interleukin enhancer-binding factor 2 (from UniProt Q7TP98 1-463)
